PubChem BioAssay AID504808 – Drosophila RNAi Screening Center, 2011
The screen tested about 21,000 reagents; shown is a random part of those with a known target gene and a result. In the full data, 18 (0.084%) were called active. 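Raw counts without plate normalisation, one of two replicates; the ratio scores behind the calls were not deposited.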 A number with no mark means an inactive call. A plus sign joins genes that one reagent is predicted to hit. Not given: the amount of reagent, the time to read-out.

Assay: 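Fly genes required to hold E2F transcription in check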 (primary screen)
Cells: Drosophila S2 cells
Reagents: long dsRNA against Drosophila genes
Read-out: 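Firefly luciferase driven by E2F sites, normalised to Renilla luciferase on the same minimal promoter, measured by plate reader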
Scale: E2F firefly: higher = more E2F reporter activity; Renilla normaliser: higher = more normaliser reporter signal
Call rule: 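a knock-down counted as active when the firefly/Renilla E2F signal rose above 50%, a threshold chosen arbitrarily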

| target gene | dsRNA | E2F firefly, rep 1 | Renilla normaliser, rep 1 |
| --- | --- | --- | --- |
| CG10512 | DRSC11615 | 1.33e5 | 6317 |
| CG5966 | DRSC18394 | 7963 | 800 |
| CG7953 | DRSC01902 | 80172 | 3458 |
| GluProRS (Glutamyl-prolyl-tRNA synthetase) | DRSC14095 | 67007 | 3002 |
| cry (cryptochrome) | DRSC16928 | 1.47e5 | 7983 |
| AhcyL1 (Adenosylhomocysteinase like 1) | DRSC08647 | 1.13e5 | 4389 |
| hang (hangover) | DRSC19901 | 5147 | 672 |
| hang (hangover) | DRSC19902 | 87796 | 4246 |
| wmd (wing morphogenesis defect) | DRSC04436 | 92608 | 3477 |
| Cht7 (Chitinase 7) | DRSC08538 | 78800 | 3521 |
| endos (endosulfine) | DRSC10658 | 75329 | 18 |
| CG17575 | DRSC06682 | 1.01e5 | 4899 |
| bdg (bedraggled) | DRSC07136 | 61591 | 3232 |
| CG15515 | DRSC15054 | 1.31e5 | 7494 |
| ND-B14.7 (NADH dehydrogenase (ubiquinone) B14.7 subunit) | DRSC04544 | 94792 | 4305 |
| CG13323 | DRSC06360 | 1.03e5 | 3984 |
| Strica (Ser/Thr-rich caspase) | DRSC04920 | 1.13e5 | 4488 |
| mub (mushroom-body expressed) | DRSC11896 | 82112 | 3426 |
| CG5001 | DRSC00673 | 1.66e5 | 5886 |
| CG15475 | DRSC02486 | 1.13e5 | 4910 |
| CG5455 | DRSC15805 | 1922 | 940 |
| Vha13 (Vacuolar H[+] ATPase 13kD subunit) | DRSC16895 | 1.23e5 | 7182 |
| PolZ2 (DNA polymerase zeta subunit 2) | DRSC12325 | 1.34e5 | 6771 |
| Lztr1 (Leucine zipper like transcription regulator 1) | DRSC18176 | 1.26e5 | 5593 |
| Lztr1 (Leucine zipper like transcription regulator 1) | DRSC18647 | 1.00e5 | 4974 |
| Mtch | DRSC08679 | 67676 | 2929 |
| Meltrin | DRSC16274 | 64586 | 3645 |
| bai (baiser) | DRSC14388 | 1.09e5 | 6753 |
| CG34032 (retired record) | DRSC09225 | 1.24e5 | 4737 |
| CG3982 | DRSC10394 | 73360 | 5014 |
| Rop (Ras opposite) | DRSC08693 | 61532 | 3390 |
| CG2962 | DRSC18247 | 7995 | 824 |
| CG9173 | DRSC08635 | 1.05e5 | 3963 |
| CG42288 | DRSC06381 | 1.01e5 | 4185 |
| cola + swif | DRSC06826 | 1.32e5 | 5106 |
| CG14219 | DRSC19576 | 1.39e5 | 6795 |
| CG14339 | DRSC00369 | 1.64e5 | 6522 |
| CG3604 | DRSC00618 | 1.53e5 | 4916 |
| Dlg5 (Discs large 5) | DRSC02964 | 73351 | 2855 |
| CG7488 | DRSC16250 | 1.12e5 | 5479 |
| CG17292 | DRSC02594 | 98583 | 3729 |
| RpS13 (Ribosomal protein S13) | DRSC03419 | 64181 | 3785 |
| Hsp60B (Heat shock protein 60B) | DRSC00542 | 81488 | 3837 |
| NdufA3 (NADH:ubiquinone oxidoreductase subunit A3) | DRSC18431 | 55547 | 4281 |
| RpL30 (Ribosomal protein L30) | DRSC02087 | 85318 | 4551 |
| ocm (over compensating males) | DRSC04360 | 1.31e5 (active) | 219 |

The list goes on; the last 3 above are carried over.
| target gene | dsRNA | E2F firefly, rep 1 | Renilla normaliser, rep 1 |
| --- | --- | --- | --- |
| NdufA3 (NADH:ubiquinone oxidoreductase subunit A3) | DRSC18431 | 55547 | 4281 |
| RpL30 (Ribosomal protein L30) | DRSC02087 | 85318 | 4551 |
| ocm (over compensating males) | DRSC04360 | 1.31e5 (active) | 219 |
| Nup358 (Nucleoporin 358kD) | DRSC14410 | 63677 | 4639 |
| CG5973 | DRSC02918 | 85876 | 3878 |
| opa (odd paired) | DRSC12384 | 1.20e5 | 5571 |
| NtR | DRSC04628 | 1.05e5 | 4398 |
| gcm (glial cells missing) | DRSC03536 | 1.42e5 | 5107 |
| tei (teiresias) | DRSC07616 | 89991 | 4428 |
| CG31960 | DRSC00281 | 1.50e5 | 5676 |
| wry (weary) | DRSC00352 | 1.65e5 | 5450 |
| wry (weary) | DRSC00456 | 1.65e5 | 5988 |
| Octbeta1R (Octopamine beta1 receptor) | DRSC16134 | 1.07e5 | 5194 |
| CG10097 + CG10096 | DRSC14189 | 71148 | 3883 |
| CG10097 + CG10096 | DRSC14190 | 1.39e5 | 6261 |
| Dlic (Dynein light intermediate chain) | DRSC19824 | 8861 | 668 |
| NAAT1 (Nutrient Amino Acid Transporter 1) | DRSC18300 | 1.10e5 | 6716 |
| CG12499 | DRSC14521 | 79897 | 4985 |
| norpA (no receptor potential A) | DRSC18806 | 1983 | 860 |
| fal (falten) | DRSC11087 | 68947 | 3050 |
| MFS1 (Major Facilitator Superfamily Transporter 1) | DRSC04115 | 1.02e5 | 4411 |
| mdy (midway) | DRSC01559 | 1.29e5 | 5162 |
| mdy (midway) | DRSC02250 | 94126 | 4036 |
| unc (uncoordinated) | DRSC20511 | 1.41e5 | 6431 |
| Mlf (Myelodysplasia/myeloid leukemia factor) | DRSC07472 | 1.24e5 | 5173 |
| CG31823 | DRSC01887 | 1.05e5 | 4579 |
| CG34288 | DRSC13564 | 91615 | 2729 |
| btsz (bitesize) | DRSC14982 | 98693 | 5298 |
| btsz (bitesize) | DRSC16231 | 1.12e5 | 5970 |
| Try29F (Trypsin 29F) | DRSC03466 | 1.58e5 | 5387 |
| Miro (Mitochondrial Rho) | DRSC15795 | 69875 | 3951 |
| Pnn (Pinin) | DRSC16415 | 1.43e5 | 7229 |
| wac (wee Augmin) | DRSC08349 | 96822 | 3958 |
| TwdlL (TweedleL) | DRSC16042 | 1835 | 1140 |
| CG7607 | DRSC10889 | 1.09e5 | 6502 |
| Smyd4-4 (SET and MYND domain containing, class 4, member 4) | DRSC05956 | 169 | 37 |
| CSN8 (COP9 signalosome subunit 8) | DRSC02257 | 93785 | 3802 |
| CG5196 | DRSC15735 | 1.58e5 | 7413 |
| sip3 (septin interacting protein 3) | DRSC15402 | 1781 | 972 |
| Gr61a (Gustatory receptor 61a) | DRSC08358 | 1.04e5 | 3791 |
| Afti (Aftiphilin) | DRSC16440 | 73363 | 3161 |
